The source of these data is the supplement of paper PMC10849652.

By UniProt entry, the sequences of proteins in these tests, tags left out. Where a name states a change or a piece, a line headed by the entry shows the natural chain unless it says otherwise.
UniProt Q6UWJ1: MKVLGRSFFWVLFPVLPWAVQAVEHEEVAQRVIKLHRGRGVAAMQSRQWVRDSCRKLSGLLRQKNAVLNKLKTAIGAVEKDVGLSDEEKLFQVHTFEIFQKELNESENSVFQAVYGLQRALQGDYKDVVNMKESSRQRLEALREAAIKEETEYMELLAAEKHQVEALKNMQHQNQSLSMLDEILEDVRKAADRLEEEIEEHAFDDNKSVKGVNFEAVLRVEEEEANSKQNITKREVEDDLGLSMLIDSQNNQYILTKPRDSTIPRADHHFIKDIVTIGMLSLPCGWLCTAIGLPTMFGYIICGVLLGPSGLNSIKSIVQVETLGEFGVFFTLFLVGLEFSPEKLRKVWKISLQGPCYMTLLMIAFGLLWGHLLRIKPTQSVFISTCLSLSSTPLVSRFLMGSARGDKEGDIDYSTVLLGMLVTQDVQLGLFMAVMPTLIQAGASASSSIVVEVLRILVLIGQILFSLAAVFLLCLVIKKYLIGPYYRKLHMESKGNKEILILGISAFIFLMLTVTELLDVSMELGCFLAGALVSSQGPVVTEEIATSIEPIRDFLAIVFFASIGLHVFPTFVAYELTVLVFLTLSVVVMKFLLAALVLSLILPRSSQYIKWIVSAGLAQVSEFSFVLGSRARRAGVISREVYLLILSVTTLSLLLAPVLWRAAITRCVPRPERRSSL
UniProt Q9NX00: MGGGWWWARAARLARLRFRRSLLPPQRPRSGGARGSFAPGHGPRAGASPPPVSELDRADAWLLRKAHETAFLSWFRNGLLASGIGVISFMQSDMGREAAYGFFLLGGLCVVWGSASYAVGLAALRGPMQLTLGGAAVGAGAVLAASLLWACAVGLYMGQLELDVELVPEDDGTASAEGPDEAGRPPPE
UniProt Q9NQ88: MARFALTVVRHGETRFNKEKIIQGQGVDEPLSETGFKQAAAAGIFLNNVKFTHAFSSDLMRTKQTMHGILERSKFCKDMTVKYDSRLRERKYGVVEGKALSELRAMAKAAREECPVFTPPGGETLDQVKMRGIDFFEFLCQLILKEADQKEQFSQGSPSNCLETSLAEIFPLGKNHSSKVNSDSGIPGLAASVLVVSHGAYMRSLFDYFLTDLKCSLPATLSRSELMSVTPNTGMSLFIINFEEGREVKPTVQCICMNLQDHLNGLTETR
UniProt Q8TDI8: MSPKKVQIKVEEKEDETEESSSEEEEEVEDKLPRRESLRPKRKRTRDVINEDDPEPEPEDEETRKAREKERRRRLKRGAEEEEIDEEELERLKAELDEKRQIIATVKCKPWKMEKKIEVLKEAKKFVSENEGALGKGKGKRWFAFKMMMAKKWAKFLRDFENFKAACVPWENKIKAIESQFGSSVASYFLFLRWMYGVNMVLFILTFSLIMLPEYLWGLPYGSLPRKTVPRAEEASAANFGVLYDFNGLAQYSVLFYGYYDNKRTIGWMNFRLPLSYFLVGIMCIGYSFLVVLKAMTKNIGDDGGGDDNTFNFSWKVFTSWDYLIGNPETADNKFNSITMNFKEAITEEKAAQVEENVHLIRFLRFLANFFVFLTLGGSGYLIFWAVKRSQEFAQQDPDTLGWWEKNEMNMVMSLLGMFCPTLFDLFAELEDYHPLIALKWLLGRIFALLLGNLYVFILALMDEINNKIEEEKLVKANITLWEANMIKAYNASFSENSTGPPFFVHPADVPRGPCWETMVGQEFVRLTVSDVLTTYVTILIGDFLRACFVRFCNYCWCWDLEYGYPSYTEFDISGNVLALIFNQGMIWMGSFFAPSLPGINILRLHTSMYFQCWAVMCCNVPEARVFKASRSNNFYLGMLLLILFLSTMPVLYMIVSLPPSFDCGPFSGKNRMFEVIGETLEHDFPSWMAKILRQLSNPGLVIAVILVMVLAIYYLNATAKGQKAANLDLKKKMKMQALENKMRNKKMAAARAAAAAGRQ
UniProt O00142: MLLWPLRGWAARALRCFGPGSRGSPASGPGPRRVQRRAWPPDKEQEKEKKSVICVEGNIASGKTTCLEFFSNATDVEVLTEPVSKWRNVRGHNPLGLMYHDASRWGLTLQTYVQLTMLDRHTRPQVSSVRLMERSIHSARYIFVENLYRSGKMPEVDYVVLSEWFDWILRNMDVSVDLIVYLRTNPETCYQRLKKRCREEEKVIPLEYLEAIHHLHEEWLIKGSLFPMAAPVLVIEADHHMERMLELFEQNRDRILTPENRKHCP
UniProt Q9H5L6: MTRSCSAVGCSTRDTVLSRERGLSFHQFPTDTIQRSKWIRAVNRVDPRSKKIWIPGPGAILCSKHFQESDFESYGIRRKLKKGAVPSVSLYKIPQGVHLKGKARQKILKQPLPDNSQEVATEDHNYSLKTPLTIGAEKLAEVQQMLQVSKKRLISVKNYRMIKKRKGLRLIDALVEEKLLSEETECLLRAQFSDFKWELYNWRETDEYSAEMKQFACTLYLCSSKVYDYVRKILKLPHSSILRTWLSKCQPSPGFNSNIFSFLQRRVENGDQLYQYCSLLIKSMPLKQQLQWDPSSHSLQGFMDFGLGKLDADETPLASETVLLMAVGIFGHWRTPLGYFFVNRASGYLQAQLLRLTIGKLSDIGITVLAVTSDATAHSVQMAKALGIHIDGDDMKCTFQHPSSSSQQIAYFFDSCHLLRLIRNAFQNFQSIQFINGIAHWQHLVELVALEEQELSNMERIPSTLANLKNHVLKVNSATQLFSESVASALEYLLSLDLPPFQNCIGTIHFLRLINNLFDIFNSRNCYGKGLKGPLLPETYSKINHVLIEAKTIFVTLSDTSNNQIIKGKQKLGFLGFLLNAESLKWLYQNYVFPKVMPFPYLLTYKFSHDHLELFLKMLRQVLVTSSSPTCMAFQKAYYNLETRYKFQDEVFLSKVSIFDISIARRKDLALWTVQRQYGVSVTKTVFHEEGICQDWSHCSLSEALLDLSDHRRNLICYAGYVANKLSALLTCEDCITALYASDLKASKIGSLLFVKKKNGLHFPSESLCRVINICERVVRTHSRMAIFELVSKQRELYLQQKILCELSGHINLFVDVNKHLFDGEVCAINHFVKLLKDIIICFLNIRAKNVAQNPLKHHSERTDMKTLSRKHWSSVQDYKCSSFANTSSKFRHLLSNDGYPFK
UniProt Q9Y5L4: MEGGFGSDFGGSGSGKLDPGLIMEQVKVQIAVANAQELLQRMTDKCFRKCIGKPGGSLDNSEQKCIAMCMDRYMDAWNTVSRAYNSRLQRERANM
UniProt Q8N131: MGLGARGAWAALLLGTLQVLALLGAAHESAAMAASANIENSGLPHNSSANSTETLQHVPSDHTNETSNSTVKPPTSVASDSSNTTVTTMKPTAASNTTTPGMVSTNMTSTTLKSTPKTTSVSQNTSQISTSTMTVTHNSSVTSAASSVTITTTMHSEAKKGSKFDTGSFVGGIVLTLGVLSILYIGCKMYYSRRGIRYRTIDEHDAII
UniProt Q9BZW5, whole entry, looked up: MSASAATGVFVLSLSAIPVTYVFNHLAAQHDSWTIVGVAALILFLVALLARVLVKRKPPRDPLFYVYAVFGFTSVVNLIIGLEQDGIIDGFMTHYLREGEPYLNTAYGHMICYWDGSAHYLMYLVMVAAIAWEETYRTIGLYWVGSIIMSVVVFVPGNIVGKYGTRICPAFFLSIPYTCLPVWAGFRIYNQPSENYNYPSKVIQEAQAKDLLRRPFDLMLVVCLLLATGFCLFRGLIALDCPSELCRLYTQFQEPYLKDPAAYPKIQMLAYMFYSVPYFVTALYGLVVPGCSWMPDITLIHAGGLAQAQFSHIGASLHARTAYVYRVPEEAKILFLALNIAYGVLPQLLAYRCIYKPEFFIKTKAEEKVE
UniProt Q96EK4, whole entry, looked up: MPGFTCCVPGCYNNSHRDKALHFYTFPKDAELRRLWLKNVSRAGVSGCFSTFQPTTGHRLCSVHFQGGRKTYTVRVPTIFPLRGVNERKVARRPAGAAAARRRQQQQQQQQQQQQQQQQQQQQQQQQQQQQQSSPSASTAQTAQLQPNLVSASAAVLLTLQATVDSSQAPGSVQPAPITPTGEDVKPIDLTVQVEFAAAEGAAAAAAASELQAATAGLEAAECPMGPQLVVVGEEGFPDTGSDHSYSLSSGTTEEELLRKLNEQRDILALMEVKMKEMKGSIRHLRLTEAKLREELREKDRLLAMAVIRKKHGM
UniProt Q6I9Y2: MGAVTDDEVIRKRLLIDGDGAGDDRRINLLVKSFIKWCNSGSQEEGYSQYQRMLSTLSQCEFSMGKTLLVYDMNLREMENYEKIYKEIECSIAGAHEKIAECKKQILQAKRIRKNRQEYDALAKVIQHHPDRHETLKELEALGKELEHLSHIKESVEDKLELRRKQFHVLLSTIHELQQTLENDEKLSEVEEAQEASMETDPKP
UniProt Q9P2C4: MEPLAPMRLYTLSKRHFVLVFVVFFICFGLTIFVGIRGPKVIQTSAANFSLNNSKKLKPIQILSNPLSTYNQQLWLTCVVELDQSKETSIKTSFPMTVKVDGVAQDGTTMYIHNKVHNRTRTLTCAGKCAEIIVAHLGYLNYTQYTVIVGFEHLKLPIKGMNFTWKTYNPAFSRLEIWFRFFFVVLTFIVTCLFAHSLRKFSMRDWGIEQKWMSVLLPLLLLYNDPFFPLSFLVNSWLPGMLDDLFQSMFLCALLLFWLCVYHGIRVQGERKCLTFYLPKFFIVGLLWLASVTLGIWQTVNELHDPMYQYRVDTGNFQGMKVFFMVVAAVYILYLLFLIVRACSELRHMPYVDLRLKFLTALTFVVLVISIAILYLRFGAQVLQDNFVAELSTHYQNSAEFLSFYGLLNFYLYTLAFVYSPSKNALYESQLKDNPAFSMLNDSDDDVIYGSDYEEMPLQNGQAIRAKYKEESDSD
UniProt Q9P0S9: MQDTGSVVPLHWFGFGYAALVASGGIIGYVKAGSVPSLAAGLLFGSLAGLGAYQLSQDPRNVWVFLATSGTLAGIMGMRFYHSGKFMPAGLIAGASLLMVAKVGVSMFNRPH
UniProt Q96AN5: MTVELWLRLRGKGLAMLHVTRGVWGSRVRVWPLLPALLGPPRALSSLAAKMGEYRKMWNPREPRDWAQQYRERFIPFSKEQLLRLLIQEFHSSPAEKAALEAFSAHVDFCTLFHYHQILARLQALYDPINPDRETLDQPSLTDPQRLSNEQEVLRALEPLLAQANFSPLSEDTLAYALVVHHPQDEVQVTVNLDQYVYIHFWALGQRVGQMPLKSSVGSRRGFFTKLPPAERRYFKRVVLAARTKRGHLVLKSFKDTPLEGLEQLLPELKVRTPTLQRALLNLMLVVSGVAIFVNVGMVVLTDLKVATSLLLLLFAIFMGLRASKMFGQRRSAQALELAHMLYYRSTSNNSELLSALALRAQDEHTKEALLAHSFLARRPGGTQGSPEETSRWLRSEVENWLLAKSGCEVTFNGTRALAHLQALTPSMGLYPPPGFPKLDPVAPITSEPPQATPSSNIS
UniProt Q53S58: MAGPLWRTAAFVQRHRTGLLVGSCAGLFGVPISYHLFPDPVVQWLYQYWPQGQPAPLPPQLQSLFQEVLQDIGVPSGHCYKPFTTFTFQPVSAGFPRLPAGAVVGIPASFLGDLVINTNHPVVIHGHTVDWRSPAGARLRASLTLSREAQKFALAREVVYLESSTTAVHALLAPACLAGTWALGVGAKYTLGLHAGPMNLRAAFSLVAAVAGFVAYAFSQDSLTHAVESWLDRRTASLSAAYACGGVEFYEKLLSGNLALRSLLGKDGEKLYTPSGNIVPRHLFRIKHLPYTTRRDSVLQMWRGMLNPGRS
UniProt P62072: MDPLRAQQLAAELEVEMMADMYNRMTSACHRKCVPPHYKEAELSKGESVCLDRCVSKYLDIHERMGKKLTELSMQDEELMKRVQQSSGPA
UniProt O75204: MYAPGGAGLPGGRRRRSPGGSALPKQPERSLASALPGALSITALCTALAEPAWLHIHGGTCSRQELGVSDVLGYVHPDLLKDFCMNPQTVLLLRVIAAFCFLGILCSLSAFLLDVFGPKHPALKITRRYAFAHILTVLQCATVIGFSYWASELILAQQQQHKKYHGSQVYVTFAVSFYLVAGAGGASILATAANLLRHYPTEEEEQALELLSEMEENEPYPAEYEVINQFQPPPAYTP
UniProt P29401: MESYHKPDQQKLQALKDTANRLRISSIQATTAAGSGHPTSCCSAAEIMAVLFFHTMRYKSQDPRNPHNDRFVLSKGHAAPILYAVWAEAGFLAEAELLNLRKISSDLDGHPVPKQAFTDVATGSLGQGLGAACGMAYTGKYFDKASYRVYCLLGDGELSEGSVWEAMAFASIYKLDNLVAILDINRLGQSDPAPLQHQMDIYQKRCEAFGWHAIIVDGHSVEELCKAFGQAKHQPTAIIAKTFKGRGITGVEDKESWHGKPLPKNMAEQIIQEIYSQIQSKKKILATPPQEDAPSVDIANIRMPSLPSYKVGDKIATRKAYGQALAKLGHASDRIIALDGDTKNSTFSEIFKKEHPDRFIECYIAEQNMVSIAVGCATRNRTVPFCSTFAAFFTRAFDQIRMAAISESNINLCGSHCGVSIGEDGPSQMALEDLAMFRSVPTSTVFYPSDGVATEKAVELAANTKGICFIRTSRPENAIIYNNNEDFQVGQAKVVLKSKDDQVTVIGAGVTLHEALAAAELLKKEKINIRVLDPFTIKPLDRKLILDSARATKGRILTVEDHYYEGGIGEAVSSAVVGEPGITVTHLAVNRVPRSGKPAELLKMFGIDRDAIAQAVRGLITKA

This is one part of the list.

Compound in one assay: COC(=O)N[C@@H](C)CNc1nccc(-c2cn(C(C)C)nc2-c2cc(Cl)cc(NS(C)(=O)=O)c2F)n1 [encorafenib]
Nature of the assay: log2 fold change, soluble protein after heating vs DMSO (PISA); higher = thermal stabilisation; K562 lysate, 10 uM; active = over 0.2 and 3.5 SD of the protein, either way, in both replicates (recomputed). The method in brief: (§1)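 K562 pellets were dounce-homogenised in PBS pH 7.4 containing 1 mM MgCl2, and the crude extract, at 1 mg/mL protein, was exposed to 10 μM compound for 30 min. Aliquots were heated for 3 min across 48°C-58°C, pooled, brought to 0.5% NP-40 at 4°C and spun at 21,000xg for 90 min, with the supernatant taken as soluble protein. TMTpro 16plex LC-MS/MS with equalised channel sums quantified that protein. Values are log-two fold changes in thermal stability relative to solvent controls, taken from duplicates.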
Turning to TMCO3 (UniProt Q6UWJ1), the log2 fold change was inactive: -0.022.

Turning to TMEM160 (UniProt Q9NX00), the log2 fold change is inactive: 0.095.

TIGAR (UniProt Q9NQ88): the log2 fold change is inactive: -0.013.

Take TMC1 (UniProt Q8TDI8): the log2 fold change is inactive: 0.03.

As for TIMM44 (UniProt O43615), the log2 fold change was inactive: 0.056.

Turning to TK2 isoform 6 (UniProt O00142), the log2 fold change was inactive: -0.079.

Consider TK1 (UniProt K7ERV3), for which the log2 fold change is inactive: -0.199.

Turning to THAP9 (UniProt Q9H5L6), the log2 fold change was inactive: -0.009.

Regarding TIMM13 (UniProt Q9Y5L4), the log2 fold change was inactive: 0.04.

For TM7SF3 (UniProt Q9NS93), the log2 fold change was inactive: -0.031.

Turning to TMED1 (UniProt Q13445), the log2 fold change is inactive: 0.013.

Regarding TMEM123 (UniProt Q8N131), the log2 fold change was inactive: -0.012.

Turning to TIMM21 (UniProt Q9BVV7), the log2 fold change was inactive: 0.056.

Take TMEM120B (UniProt A0PK00): the log2 fold change was inactive: 0.036.

As for TM6SF1 (UniProt Q9BZW5), the log2 fold change is inactive: -0.018.

As to THAP11 (UniProt Q96EK4), the log2 fold change is inactive: 0.101.

Turning to THOC7 (UniProt Q6I9Y2), the log2 fold change is inactive: -0.013.

Consider TKFC (UniProt Q3LXA3), for which the log2 fold change was inactive: -0.038.

As for TMEM181 (UniProt Q9P2C4), the log2 fold change was inactive: -0.008.

Take TK1 (UniProt P04183): the log2 fold change is inactive: -0.018.

Consider TMEM167A (UniProt Q8TBQ9), for which the log2 fold change is inactive: 0.13.

In the case of TMEM14C (UniProt Q9P0S9), the log2 fold change was inactive: 0.004.

Take TMEM161B (UniProt Q8NDZ6): the log2 fold change is inactive: 0.047.

Take TMEM143 (UniProt Q96AN5): the log2 fold change is inactive: 0.34.

TLR9 isoform 4 (UniProt Q9NR96): the log2 fold change is inactive: 0.079.

For TMEM177 (UniProt Q53S58), the log2 fold change was inactive: 0.019.

For the target TGM2 (UniProt P21980), the log2 fold change was inactive: -0.017.

Regarding TIMM10 (UniProt P62072), the log2 fold change is inactive: 0.109.

TMED4 (UniProt Q7Z7H5): the log2 fold change was inactive: 0.016.

In the case of TM9SF1 (UniProt O15321), the log2 fold change was inactive: 0.002.

Take TMEM167B (UniProt Q9NRX6): the log2 fold change was inactive: 0.026.

Turning to TMEM127 (UniProt O75204), the log2 fold change was inactive: 0.037.

As for TKT isoform 2 (UniProt P29401), the log2 fold change was inactive: 0.

As for TGOLN2 isoform 7 (UniProt O43493), the log2 fold change is inactive: 0.014.

As for TIAL1 isoform 2 (UniProt Q01085), the log2 fold change is inactive: 0.009.

Compound in another assay: COC(=O)[C@H](CCSC)NC(=O)C1=C(C=C(C=C1)NC[C@H](CS)N)C2=CC=CC=C2
Described as above. The method in brief:
as §1
As to TMCO3 (UniProt Q6UWJ1), the log2 fold change was inactive: 0.

As to TMEM160 (UniProt Q9NX00), the log2 fold change is inactive: -0.047.

Consider TIGAR (UniProt Q9NQ88), for which the log2 fold change was inactive: -0.302.

As to TMC1 (UniProt Q8TDI8), the log2 fold change is inactive: 0.054.

Regarding TIMM44 (UniProt O43615), the log2 fold change is inactive: 0.08.

On to TK2 isoform 6 (UniProt O00142), for which the log2 fold change is inactive: -0.034.

As to TK1 (UniProt K7ERV3), the log2 fold change is inactive: 0.006.

For the target THAP9 (UniProt Q9H5L6), the log2 fold change was inactive: 0.085.

For the target TIMM13 (UniProt Q9Y5L4), the log2 fold change is inactive: -0.082.

TM7SF3 (UniProt Q9NS93): the log2 fold change was inactive: 0.006.

For TMED1 (UniProt Q13445), the log2 fold change is inactive: 0.005.

For TMEM123 (UniProt Q8N131), the log2 fold change is inactive: -0.045.

On to TIMM21 (UniProt Q9BVV7), for which the log2 fold change is inactive: 0.027.

Take TMEM120B (UniProt A0PK00): the log2 fold change is inactive: 0.12.

Turning to TM6SF1 (UniProt Q9BZW5), the log2 fold change is inactive: -0.096.

On to THAP11 (UniProt Q96EK4), for which the log2 fold change is inactive: 0.052.

For THOC7 (UniProt Q6I9Y2), the log2 fold change was inactive: 0.043.

Regarding TKFC (UniProt Q3LXA3), the log2 fold change was inactive: 0.024.

For the target TMEM181 (UniProt Q9P2C4), the log2 fold change was inactive: -0.103.

For the target TK1 (UniProt P04183), the log2 fold change is inactive: -0.025.

In the case of TMEM167A (UniProt Q8TBQ9), the log2 fold change is inactive: 0.044.

As to TMEM14C (UniProt Q9P0S9), the log2 fold change is inactive: 0.022.

On to TMEM161B (UniProt Q8NDZ6), for which the log2 fold change was inactive: 0.

On to TMEM143 (UniProt Q96AN5), for which the log2 fold change was inactive: -0.097.

As to TLR9 isoform 4 (UniProt Q9NR96), the log2 fold change was inactive: -0.063.

Regarding TMEM177 (UniProt Q53S58), the log2 fold change was inactive: 0.153.

Take TGM2 (UniProt P21980): the log2 fold change was inactive: 0.074.

Take TIMM10 (UniProt P62072): the log2 fold change was inactive: -0.135.

In the case of TMED4 (UniProt Q7Z7H5), the log2 fold change is inactive: -0.025.

With TM9SF1 (UniProt O15321), the log2 fold change was inactive: -0.022.

For the target TMEM167B (UniProt Q9NRX6), the log2 fold change was inactive: -0.022.

Turning to TMEM127 (UniProt O75204), the log2 fold change was inactive: 0.019.

Turning to TKT isoform 2 (UniProt P29401), the log2 fold change was inactive: -0.038.

As for TGOLN2 isoform 7 (UniProt O43493), the log2 fold change is inactive: -0.031.

TIAL1 isoform 2 (UniProt Q01085): the log2 fold change was inactive: -0.053.
